## Drug screen on melanoma cell lines: apoptosis marker

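Human melanoma cell lines in 1,536-well plates were treated with a pair of drugs for 72 h, then fixed, stained and imaged. Values are the share of nuclei positive for cleaved PARP as a percentage of the same share in the DMSO control: 100 is the control level, higher means more apoptosis. Concentrations were fixed for each drug; these are the higher of two levels. The file gives one value for each pair and line, without errors, so small differences may be noise. The marker varies much from line to line, for technical or biological reasons.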 An unselected part of the screen is shown.

Compounds and concentrations:
sunitinib: CCN(CC)CCNC(=O)c1c(C)[nH]c(/C=C2\C(=O)Nc3ccc(F)cc32)c1C at 2000 nM
KU-0063794: COc1ccc(-c2ccc3c(N4CCOCC4)nc(N4C[C@@H](C)O[C@@H](C)C4)nc3n2)cc1CO at 100 nM
PD173074: CCN(CC)CCCCNc1ncc2cc(-c3cc(OC)cc(OC)c3)c(NC(=O)NC(C)(C)C)nc2n1 at 500 nM
KU-55933: O=c1cc(-c2cccc3c2Sc2ccccc2S3)oc(N2CCOCC2)c1 at 5000 nM
ZM336372: Cc1ccc(NC(=O)c2cccc(N(C)C)c2)cc1NC(=O)c1ccc(O)cc1 at 10000 nM
SNS-314: O=C(Nc1cccc(Cl)c1)Nc1ncc(CCNc2ncnc3ccsc23)s1 at 4 nM
GW2580: COc1ccc(COc2ccc(Cc3cnc(N)nc3N)cc2OC)cc1 at 5000 nM
pazopanib: Cc1ccc(Nc2nccc(N(C)c3ccc4c(C)n(C)nc4c3)n2)cc1S(N)(=O)=O at 2000 nM
vismodegib: CS(=O)(=O)c1ccc(C(=O)Nc2ccc(Cl)c(-c3ccccn3)c2)c(Cl)c1 at 5000 nM
dovitinib: CN1CCN(c2ccc3nc(-c4c(N)c5c(F)cccc5[nH]c4=O)[nH]c3c2)CC1 at 500 nM

Combination	SK-MEL-2	RPMI-7951	WM115	WM3619	COLO 792	SK-MEL-28	WM3526	A2058	SK-MEL-5	LOX IMVI
PD173074 + SNS-314	179	277	417	166	155	540	149	238	138	227
KU-55933 + PD173074	146	87.6	108	123	103	73.8	143	130	90.0	111
SNS-314 + sunitinib	102	418	233	114	170	82.9	119	228	207	150
PD173074 + dovitinib	351	75.7	165	117	98.7	110	104	334	126	102
ZM336372 + pazopanib	200	152	135	324	165	145	237	95.2	135	48.0
KU-0063794 + PD173074	165	92.8	238	160	64.4	51.5	120	158	140	159
KU-55933 + SNS-314	123	51.1	371	92.2	92.5	123	141	110	103	166
SNS-314 + ZM336372	191	272	447	92.6	110	144	93.1	173	66.8	36.9
ZM336372 + dovitinib	495	99.2	252	198	317	278	327	843	131	107
dovitinib + GW2580	170	83.2	173	121	133	135	204	478	170	81.9
vismodegib + PD173074	78.0	143	82.8	77.3	34.9	66.1	125	61.3	41.0	660
ZM336372 + sunitinib	550	124	483	172	345	116	350	348	222	318
GW2580 + sunitinib	55.6	216	228	258	253	60.0	500	236	877	122
KU-0063794 + vismodegib	80.1	98.1	51.9	123	155	84.6	91.8	89.1	83.7	121
GW2580 + ZM336372	35.9	60.8	183	86.0	48.6	247	59.0	102	231	90.6
vismodegib + dovitinib	175	70.6	172	170	211	39.5	96.8	760	73.3	175
KU-55933 + pazopanib	73.3	42.5	73.2	90.9	122	80.6	202	82.7	69.4	141
KU-0063794 + sunitinib	104	70.4	223	113	238	176	304	345	127	125
KU-0063794 + KU-55933	113	49.3	103	205	135	47.3	102	152	48.1	59.1
GW2580 + PD173074	92.3	53.3	68.0	112	65.1	74.7	40.3	119	149	245
PD173074 + sunitinib	102	72.3	69.4	99.0	289	53.4	404	395	336	178
ZM336372 + vismodegib	33.1	125	35.6	148	53.4	136	49.7	67.4	92.9	125
PD173074 + pazopanib	106	109	30.9	218	89.7	87.7	156	82.5	47.9	111
sunitinib + pazopanib	91.3	351	234	105	128	148	588	130	217	71.4
GW2580 + vismodegib	134	52.6	50.0	89.5	89.6	53.6	29.1	84.2	121	69.0
SNS-314 + KU-0063794	354	62.4	424	187	158	186	110	142	131	163
dovitinib + KU-55933	31.5	41.6	57.4	157	105	108	110	1210	72.9	147
KU-0063794 + pazopanib	146	216	93.3	141	119	124	103	104	119	18.1
GW2580 + SNS-314	89.4	104	157	146	115	146	49.3	240	113	97.0
pazopanib + GW2580	54.4	91.2	114	199	107	132	120	92.4	263	109
GW2580 + KU-0063794	51.8	73.6	111	143	121	82.5	42.7	55.2	215	34.8
KU-0063794 + ZM336372	93.5	25.7	57.5	459	89.1	184	110	121	87.4	49.4
KU-55933 + sunitinib	196	720	204	173	126	52.3	450	313	157	230
GW2580 + KU-55933	55.7	95.7	87.6	141	91.5	72.9	150	59.1	101	174
SNS-314 + dovitinib	255	52.6	259	107	298	221	132	630	237	364
vismodegib + SNS-314	126	95.9	190	136	257	251	66.6	100	90.7	80.5

Some entries from above, unchanged:

| Combination | SK-MEL-2 | RPMI-7951 | WM115 | WM3619 | COLO 792 | SK-MEL-28 | WM3526 | A2058 | SK-MEL-5 | LOX IMVI |
|---|---|---|---|---|---|---|---|---|---|---|
| SNS-314 + KU-0063794 | 354 | 62.4 | 424 | 187 | 158 | 186 | 110 | 142 | 131 | 163 |
| PD173074 + pazopanib | 106 | 109 | 30.9 | 218 | 89.7 | 87.7 | 156 | 82.5 | 47.9 | 111 |
| KU-0063794 + KU-55933 | 113 | 49.3 | 103 | 205 | 135 | 47.3 | 102 | 152 | 48.1 | 59.1 |

Source: doi:10.1371/journal.pone.0140310, primary screening data, rounded.